Some of these results come from one statement about several compounds together.
Legend:
Diabrotica balteata = Diabrotica balteata (corn root worm) artificial diet test; format: in vivo; settings: 200 ppm (concentration in well 18 ppm), L2 larvae, 5 days, larval mortality and growth regulation
Description: Diabrotica balteata (Corn Root Worm): A 24-well microtiter plate (MTP) with artificial diet was treated with test solutions at an application rate of 200 ppm (concentration in well 18 ppm) by pipetting. After drying, the MTP's were infested with larvae (L2) (6-10 per well). After an incubation period of 5 days, samples were checked for larval mortality, and growth regulation.

Spodoptera littoralis = Spodoptera littoralis (Egyptian cotton leafworm) cotton leaf disc test; format: in vivo; settings: 200 ppm sprayed on cotton leaf discs, 5 L1 larvae, mortality, feeding behaviour, growth regulation 3 DAT
Description: Spodoptera littoralis (Egyptian Cotton Leafworm): Cotton leaf discs were placed on agar in a 24-well microtiter plate and sprayed with test solutions at an application rate of 200 ppm. After drying, the leaf discs were infested with 5 L1 larvae. The samples were checked for mortality, feeding behaviour, and growth regulation 3 days after treatment (DAT).

Structure (SMILES): COc1c(NC(=O)c2cccc(F)c2F)cccc1C(=O)Nc1c(C(F)(F)F)c(C(F)(F)C(F)(F)F)nn1C [Compound C21]
- control of Diabrotica balteata (Diabrotica balteata): at least 80%
- control of Spodoptera littoralis (Spodoptera littoralis): at least 80%
